Measurements reported in PubChem BioAssay AID602196 (INSERM, 2012)
Test: 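Modifiers of cisplatin sensitivity in A549 cells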. System: human A549 lung cancer cells. Knock-down reagent: siRNA pair against human genes. Timing: 48 h transfection before cisplatin; time from cisplatin to read-out not stated. Conditions: cisplatin at a dose killing half of control-siRNA cells; exact dose and duration not given. Detection: 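Shift in cisplatin death relative to control siRNA, from -50 (all cells die) to +50 (no cells die); siRNAs harmful on their own scored 0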. Direction: two-siRNA summed score (-2 to +2): higher = both siRNAs protect from cisplatin killing; -2 means both sensitise; mean protection from cisplatin (shift in death) and protection from cisplatin (shift in death), siRNA C and protection from cisplatin (shift in death), siRNA D: higher = protection from cisplatin killing. Hit rule: 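Each siRNA scores 0 if harmful alone by LDH or WST-1, otherwise +1 if it reduces and -1 if it increases cisplatin killing; a gene is active when both siRNAs agree (sum +2 or -2)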. Meaning of the calls: active = both siRNAs shift cisplatin killing the same way; inactive = no consistent shift, or siRNA harmful alone.
Shown is one part, drawn at random, of about 23,000 reagents tested. 455 of all reagents (2%) count as active. 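Active includes both protection and sensitisation; some change values fall well beyond the stated -50 to +50 range.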 A number with no mark means an inactive call. Not given: the amount of reagent.

no.	gene symbol	two-siRNA summed score (-2 to +2)	mean protection from cisplatin (shift in death) (%)	protection from cisplatin (shift in death), siRNA C (%)	protection from cisplatin (shift in death), siRNA D (%)
1	PYGO2	0	2.1	6.8	-2.6
2	SYNE1	-1	-1.2	19.2	-21.5
3	UNC79	0	2.9	0.1	5.7
4	GCKR	0	7.3	15.7	-1.1
5	LOC389167	1	11.2	12.8	9.6
6	PPRC1	0	-22.5	-10.2	-34.7
7	DUS1L	0	-7.5	-4.1	-10.9
8	SSH1	0	2.8	0.1	5.5
9	FCGR1A	0	-1.1	-4.9	2.8
10	LOC389801	0	3.6	4	3.2
11	EIF2AK1	1	11.1	23.1	-0.8
12	LOC388628	1	6.8	24.2	-10.5
13	ATG4A	0	9.8	8.7	10.9
14	LINC01940	2 (active)	17.2	12.8	21.7
15	ATP2B3	1	10.9	16.7	5.2
16	ATF1	-1	-12.3	1	-25.6
17	MOGAT3	1	14.9	12.8	17
18	ZNF470	0	5.9	5.6	6.2
19	LOC440281	1	13.5	14.2	12.8
20	MAML2	0	23	14.9	31.1
21	CDH3	-1	-18.5	-15.5	-21.6
22	IFNWP2	0	0.8	-1.5	3
23	ASXL2	0	0.8	6	-4.4
24	TTF2	0	2.5	7.6	-2.6
25	NDRG2	0	10.2	9.1	11.3
26	INTU	0	13.8	13.2	14.3
27	LOC151451	0	14.8	11.5	18.1
28	DIRC1	0	7.1	5.4	8.8
29	MITF	0	-11.4	-12.8	-10.1
30	KCNQ1DN	0	1.4	3.7	-0.8
31	TMEM192	1	12.1	7.2	16.9
32	LOC389392	1	8.5	-1.6	18.7
33	LDOC1	1	24.2	23.7	24.6
34	TNFSF12-TNFSF13	1	11.2	6.5	16
35	LAG3	0	-3	-3	-3.1
36	AGO1	0	23.8	49.4	-1.8
37	ROPN1	0	5	1.2	8.8
38	POM121L8P	1	9.6	13.1	6.1
39	KNG1	0	-4.9	-5.3	-4.6

3 successive reagents already listed, quoted:
no.	gene symbol	two-siRNA summed score (-2 to +2)	mean protection from cisplatin (shift in death) (%)	protection from cisplatin (shift in death), siRNA C (%)	protection from cisplatin (shift in death), siRNA D (%)
13	ATG4A	0	9.8	8.7	10.9
14	LINC01940	2 (active)	17.2	12.8	21.7
15	ATP2B3	1	10.9	16.7	5.2
